This experiment deals with T1, VDR-pBIND (vitamin D receptor fused to the GAL4 DNA-binding domain) (human) (UniProt P11473).
T1 sequence: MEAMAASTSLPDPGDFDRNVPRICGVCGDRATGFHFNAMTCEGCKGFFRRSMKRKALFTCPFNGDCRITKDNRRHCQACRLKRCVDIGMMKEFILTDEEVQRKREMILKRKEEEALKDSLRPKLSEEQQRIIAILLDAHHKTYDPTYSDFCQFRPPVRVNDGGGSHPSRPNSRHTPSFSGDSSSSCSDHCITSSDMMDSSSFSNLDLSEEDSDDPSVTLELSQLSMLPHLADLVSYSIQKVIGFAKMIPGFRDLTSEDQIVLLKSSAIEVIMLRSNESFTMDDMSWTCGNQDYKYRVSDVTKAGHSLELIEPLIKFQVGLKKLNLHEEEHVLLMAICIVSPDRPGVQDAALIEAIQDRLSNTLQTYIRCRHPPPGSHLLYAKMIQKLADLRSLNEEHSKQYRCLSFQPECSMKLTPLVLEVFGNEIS
Put plainly: two-hybrid.

These are yes or no findings as the source states them, for the method shown. A result given as binding can be weak or reduced; the word gives no strength. Tags and fused reporters may be left off the sequences shown.

Consider “RXR-pACT (retinoid X receptor fused to the VP16 activation domain) (human)”, for which the binding entry is “binds”.

The values above are taken from publication doi:10.1101/2025.02.03.636272.
